# Data reported in the supplement of paper PMC8728848.
# The list shows a part of the results.
# B1: KCR (Mus musculus), P70194 (protein)
# chain: MKEAELNRDMARYCTDNQCVSLQPQGLGPKSAALMAPRTLRHVQVILALMVVTVIFSLLALFVVASQPWRPEWNKEPPSLLLRGSNNSGHDNHSQFVRETEMQVAIQRLRDYEENSSSCHKEVQILKYQMDNVSSLVQLLGSHLEDVNADILQTKDVLKESGALALETQALRSSLEVASADIHSLRGDLEKANAMTSQTRGLLKSSTENTSAELHVLGRGLEEAQSEIQALRGSLQSANDLSSQTQGFLQHSMDNISAQIQTVRDGMERAGEKMNSLKKELETLTAQTQKANGHLEQTDAQIQGLKAELKSTSSLNSRIEVVNGQMKDASRELQTLRRDLSDVSALKSNVQMLQSNLQRAKTEMQTLKADLQATKALTAKIQGEQNRLGALQEAVAAQKQEQKTQNQVLQLIAQNWKYFNGNFYYFSRDKKPWREAEKFCTSQGAHLASVTSQEEQAFLVQTTSSGDHWIGLTDQGTEGIWRWVDGTPFNNAQSKGFWGKNQPDNWRHRNGEREDCVHVRQQWNDMACGSSYPWVCKKSTGWSAARVG
# Tests used:
# Assay in all cases: glycan array binding signal (z-score within array); higher = stronger binding
# Details in all cases: glycan notation: IUPAC condensed, linker removed
# [1] = biological target: Man(a1-3)[Man(a1-6)]Man(a1-6)[Man(a1-3)]Man(b1-4)GlcNAc(b1-4)GlcNAc
# Method in brief: (§1)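 Negative Z-scores can be read as non-binding. The Z-score is calculated within each array and then averaged across arrays of one protein sequence at different concentrations or buffers and across linkers. Arrays, 3228 in all, were curated from the Consortium for Functional Glycomics database and kept only where the protein sequence was available.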
# [2] = biological target: Man(a1-3)[Man(a1-6)]Man(b1-4)GlcNAc(b1-4)GlcNAc
# Method in brief: as §1
# Man(b1-4)GlcNAc = biological target: Man(b1-4)GlcNAc
# Method in brief: as §1
# Neu5Ac(a2-3)Gal = biological target: Neu5Ac(a2-3)Gal
# Method in brief: as §1
# [3] = biological target: Neu5Ac(a2-3)Gal(b1-3)GalNAc
# Method in brief: as §1
# [4] = biological target: Neu5Ac(a2-3)Gal(b1-3)GalNAc(b1-3)Gal(a1-4)Gal(b1-4)Glc
# Method in brief: as §1
# [5] = biological target: Neu5Ac(a2-3)Gal(b1-3)GalNAc(b1-4)[Neu5Ac(a2-3)]Gal(b1-4)Glc
# Method in brief: as §1
# [6] = biological target: Neu5Ac(a2-3)Gal(b1-3)GalNAc6S
# Method in brief: as §1
# [7] = biological target: Neu5Ac(a2-3)Gal(b1-3)GlcNAc
# Method in brief: as §1
# [8] = biological target: Neu5Ac(a2-3)Gal(b1-3)GlcNAc(b1-3)Gal(b1-3)GlcNAc
# Method in brief: as §1
# [9] = biological target: Neu5Ac(a2-3)Gal(b1-3)GlcNAc(b1-3)Gal(b1-4)GlcNAc
# Method in brief: as §1
# [10] = biological target: Neu5Ac(a2-3)Gal(b1-3)GlcNAc6S
# Method in brief: as §1
# [11] = biological target: Neu5Ac(a2-3)Gal(b1-3)[Fuc(a1-4)]GlcNAc
# Method in brief: as §1
# [12] = biological target: Neu5Ac(a2-3)Gal(b1-3)[Fuc(a1-4)]GlcNAc(b1-3)Gal(b1-4)[Fuc(a1-3)]GlcNAc
# Method in brief: as §1
# [13] = biological target: Neu5Ac(a2-3)Gal(b1-3)[Neu5Ac(a2-3)Gal(b1-4)]GlcNAc
# Method in brief: as §1
# [14] = biological target: Neu5Ac(a2-3)Gal(b1-3)[Neu5Ac(a2-6)]GalNAc
# Method in brief: as §1
# Neu5Ac(a2-3)Gal(b1-4)Glc = biological target: Neu5Ac(a2-3)Gal(b1-4)Glc
# Method in brief: as §1
# [15] = biological target: Neu5Ac(a2-3)Gal(b1-4)GlcNAc
# Method in brief: as §1
# [16] = biological target: Neu5Ac(a2-3)Gal(b1-4)GlcNAc(b1-3)Gal(b1-3)GlcNAc
# Method in brief: as §1
# [17] = biological target: Neu5Ac(a2-3)Gal(b1-4)GlcNAc(b1-3)Gal(b1-4)GlcNAc
# Method in brief: as §1
# [18] = biological target: Neu5Ac(a2-3)Gal(b1-4)GlcNAc(b1-3)Gal(b1-4)GlcNAc(b1-3)Gal(b1-4)GlcNAc
# Method in brief: as §1
# [19] = biological target: Neu5Ac(a2-3)Gal(b1-4)GlcNAc(b1-3)Gal(b1-4)[Fuc(a1-3)]GlcNAc
# Method in brief: as §1
# [20] = biological target: Neu5Ac(a2-3)Gal(b1-4)GlcNAc(b1-6)[Gal(b1-3)]GalNAc
# Method in brief: as §1
# [21] = biological target: Neu5Ac(a2-3)Gal(b1-4)GlcNAc6S
# Method in brief: as §1
# [22] = biological target: Neu5Ac(a2-3)Gal(b1-4)[Fuc(a1-3)]GlcNAc
# Method in brief: as §1
# [23] = biological target: Neu5Ac(a2-3)Gal(b1-4)[Fuc(a1-3)]GlcNAc(b1-3)Gal
# Method in brief: as §1
# [24] = biological target: Neu5Ac(a2-3)Gal(b1-4)[Fuc(a1-3)]GlcNAc(b1-3)Gal(b1-4)GlcNAc
# Method in brief: as §1
# [25] = biological target: Neu5Ac(a2-3)Gal(b1-4)[Fuc(a1-3)]GlcNAc(b1-3)Gal(b1-4)[Fuc(a1-3)]GlcNAc(b1-3)Gal(b1-4)[Fuc(a1-3)]GlcNAc
# Method in brief: as §1
# [26] = biological target: Neu5Ac(a2-3)Gal(b1-4)[Fuc(a1-3)]GlcNAc6S
# Method in brief: as §1
# [27] = biological target: Neu5Ac(a2-3)Gal6S(b1-4)GlcNAc
# Method in brief: as §1
# [28] = biological target: Neu5Ac(a2-3)Gal6S(b1-4)[Fuc(a1-3)]GlcNAc
# Method in brief: as §1
# Neu5Ac(a2-3)GalNAc = biological target: Neu5Ac(a2-3)GalNAc
# Method in brief: as §1
# [29] = biological target: Neu5Ac(a2-3)GalNAc(b1-4)GlcNAc
# Method in brief: as §1
# [30] = biological target: Neu5Ac(a2-3)[GalNAc(b1-4)]Gal(b1-4)Glc
# Method in brief: as §1
# [31] = biological target: Neu5Ac(a2-3)[GalNAc(b1-4)]Gal(b1-4)GlcNAc
# Method in brief: as §1
# [32] = biological target: Neu5Ac(a2-3)[Neu5Ac(a2-6)]GalNAc
# Method in brief: as §1
# [33] = biological target: Neu5Ac(a2-6)Gal(b1-4)GlcNAc
# Method in brief: as §1
# [34] = biological target: Neu5Ac(a2-6)Gal(b1-4)GlcNAc(b1-2)Man(a1-3)[Neu5Ac(a2-6)Gal(b1-4)GlcNAc(b1-2)Man(a1-6)]Man(b1-4)GlcNAc(b1-4)GlcNAc
# Method in brief: as §1
# [35] = biological target: Neu5Ac(a2-6)Gal(b1-4)GlcNAc(b1-3)Gal(b1-4)GlcNAc
# Method in brief: as §1
# [36] = biological target: Neu5Ac(a2-6)Gal(b1-4)GlcNAc(b1-3)Gal(b1-4)[Fuc(a1-3)]GlcNAc(b1-3)Gal(b1-4)[Fuc(a1-3)]GlcNAc
# Method in brief: as §1
# [37] = biological target: Neu5Ac(a2-6)Gal(b1-4)GlcNAc6S
# Method in brief: as §1
# Neu5Ac(a2-6)GalNAc = biological target: Neu5Ac(a2-6)GalNAc
# Method in brief: as §1
# [38] = biological target: Neu5Ac(a2-6)GalNAc(b1-4)GlcNAc
# Method in brief: as §1
# Neu5Ac(a2-8)Neu5Ac = biological target: Neu5Ac(a2-8)Neu5Ac
# Method in brief: as §1
# [39] = biological target: Neu5Ac(a2-8)Neu5Ac(a2-3)Gal(b1-4)Glc
# Method in brief: as §1
# [40] = biological target: Neu5Ac(a2-8)Neu5Ac(a2-3)[GalNAc(b1-4)]Gal(b1-4)Glc
# Method in brief: as §1
# [41] = biological target: Neu5Ac(a2-8)Neu5Ac(a2-8)Neu5Ac
# Method in brief: as §1
# [42] = biological target: Neu5Ac(a2-8)Neu5Ac(a2-8)Neu5Ac(a2-3)Gal(b1-4)Glc
# Method in brief: as §1
# [43] = biological target: Neu5Ac(a2-8)Neu5Ac(a2-8)Neu5Ac(a2-3)[GalNAc(b1-4)]Gal(b1-4)Glc
# Method in brief: as §1
# [44] = biological target: Neu5Ac(a2-8)Neu5Ac(a2-8)Neu5Ac(a2-8)Neu5Ac(a2-3)[GalNAc(b1-4)]Gal(b1-4)Glc
# Method in brief: as §1
# [45] = biological target: Neu5Ac9Ac(a2-6)Gal(b1-4)GlcNAc
# Method in brief: as §1
# [46] = biological target: Neu5Gc(a2-3)Gal(b1-3)GlcNAc
# Method in brief: as §1
# [47] = biological target: Neu5Gc(a2-3)Gal(b1-3)[Fuc(a1-4)]GlcNAc
# Method in brief: as §1
# Neu5Gc(a2-3)Gal(b1-4)Glc = biological target: Neu5Gc(a2-3)Gal(b1-4)Glc
# Method in brief: as §1
# [48] = biological target: Neu5Gc(a2-3)Gal(b1-4)GlcNAc
# Method in brief: as §1
# [49] = biological target: Neu5Gc(a2-3)Gal(b1-4)[Fuc(a1-4)]GlcNAc
# Method in brief: as §1
# [50] = biological target: Neu5Gc(a2-6)Gal(b1-4)GlcNAc
# Method in brief: as §1
# Neu5Gc(a2-6)GalNAc = biological target: Neu5Gc(a2-6)GalNAc
# Method in brief: as §1
binder,measurement,setting,value
B1,glycan array binding signal (z-score),[1],-0.719
same,glycan array binding signal (z-score),[2],-0.684
same,glycan array binding signal (z-score),Man(b1-4)GlcNAc,-0.818
same,glycan array binding signal (z-score),Neu5Ac(a2-3)Gal,0.022
same,glycan array binding signal (z-score),[3],-0.609
same,glycan array binding signal (z-score),[4],-0.593
same,glycan array binding signal (z-score),[5],-0.617
same,glycan array binding signal (z-score),[6],-0.27
same,glycan array binding signal (z-score),[7],-0.592
same,glycan array binding signal (z-score),[8],-0.446
same,glycan array binding signal (z-score),[9],-0.239
same,glycan array binding signal (z-score),[10],-0.375
same,glycan array binding signal (z-score),[11],-0.561
same,glycan array binding signal (z-score),[12],-0.113
same,glycan array binding signal (z-score),[13],-0.401
same,glycan array binding signal (z-score),[14],-0.597
same,glycan array binding signal (z-score),Neu5Ac(a2-3)Gal(b1-4)Glc,-0.366
same,glycan array binding signal (z-score),[15],-0.698
same,glycan array binding signal (z-score),[16],-0.661
same,glycan array binding signal (z-score),[17],-0.697
same,glycan array binding signal (z-score),[18],-0.316
same,glycan array binding signal (z-score),[19],-0.539
same,glycan array binding signal (z-score),[20],-0.286
same,glycan array binding signal (z-score),[21],-0.101
same,glycan array binding signal (z-score),[22],-0.124
same,glycan array binding signal (z-score),[23],-0.692
same,glycan array binding signal (z-score),[24],0.119
same,glycan array binding signal (z-score),[25],-0.25
same,glycan array binding signal (z-score),[26],0.773
same,glycan array binding signal (z-score),[27],-0.172
same,glycan array binding signal (z-score),[28],-0.428
same,glycan array binding signal (z-score),Neu5Ac(a2-3)GalNAc,-0.706
same,glycan array binding signal (z-score),[29],-0.414
same,glycan array binding signal (z-score),[30],0.128
same,glycan array binding signal (z-score),[31],-0.33
same,glycan array binding signal (z-score),[32],-0.434
same,glycan array binding signal (z-score),[33],-0.39
same,glycan array binding signal (z-score),[34],0.412
same,glycan array binding signal (z-score),[35],-0.191
same,glycan array binding signal (z-score),[36],0.362
same,glycan array binding signal (z-score),[37],1.02
same,glycan array binding signal (z-score),Neu5Ac(a2-6)GalNAc,-0.378
same,glycan array binding signal (z-score),[38],-0.369
same,glycan array binding signal (z-score),Neu5Ac(a2-8)Neu5Ac,-0.725
same,glycan array binding signal (z-score),[39],-0.032
same,glycan array binding signal (z-score),[40],0.414
same,glycan array binding signal (z-score),[41],-0.671
same,glycan array binding signal (z-score),[42],-0.692
same,glycan array binding signal (z-score),[43],0.254
same,glycan array binding signal (z-score),[44],0.482
same,glycan array binding signal (z-score),[45],-0.053
same,glycan array binding signal (z-score),[46],-0.329
same,glycan array binding signal (z-score),[47],-0.68
same,glycan array binding signal (z-score),Neu5Gc(a2-3)Gal(b1-4)Glc,-0.204
same,glycan array binding signal (z-score),[48],-0.288
same,glycan array binding signal (z-score),[49],-0.371
same,glycan array binding signal (z-score),[50],-0.025
same,glycan array binding signal (z-score),Neu5Gc(a2-6)GalNAc,-0.414

# 2 entries drawn at random from those above:
binder,measurement,setting,value
B1,glycan array binding signal (z-score),[20],-0.286
same,glycan array binding signal (z-score),[38],-0.369
